Patent publication US20050163773A1, “Methods and pharmaceutical compositions for dopaminergic modulation of t-cell adhesion and activity” (priority 2001, published 2005)
For at least one compound, name, drawing or mass did not settle the structure.

System: Dopamine receptors on normal human T-cells
Details: DPAT 10 nM

O=c1[nH]c2ccccc2n1C1CCN(CCCC(c2ccc(F)cc2)c2ccc(F)cc2)CC1 [Pimozide]
blocking of DPAT-induced T-cell adhesion to fibronectin: without effect
